Assay results published in publication PMC11189624.

Experiments:
[1] = molecular target: T1, GST-Mlph-ABD E449A (mouse) (UniProt Q91V27); assay: pull-down; GST pulldown: 2 uM GST-Mlph-ABD (or its variants) on GSH-Sepharose with 4 uM Flag-Myo5a-MTD or its truncations; Pulldown Buffer-I (5 mM Tris-HCl pH 7.5, 100 mM NaCl, 1 mM DTT, 1 mM EGTA, 0.1% NP-40), 4 °C, 2 hr; eluted by GSH, Western blot with anti-Flag; also run at 300 and 500 mM NaCl (less pulled down); both purified
T1 sequence: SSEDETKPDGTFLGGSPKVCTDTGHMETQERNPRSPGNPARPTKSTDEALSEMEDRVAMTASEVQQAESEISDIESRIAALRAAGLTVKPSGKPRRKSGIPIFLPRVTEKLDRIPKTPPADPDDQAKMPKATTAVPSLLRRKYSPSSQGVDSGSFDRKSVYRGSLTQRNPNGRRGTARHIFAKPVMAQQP

[2] = molecular target: T2, GST-Mlph-ABD E454A (mouse) (UniProt Q91V27); assay: as above
T2 sequence: T1 sequence with A49E, E54A

[3] = molecular target: T3, GST-Mlph-ABD R562A (mouse) (UniProt Q91V27); assay: as above
T3 sequence: T1 sequence with A49E, R162A

[4] = molecular target: T4, GST-Mlph-ABD R568A (mouse) (UniProt Q91V27); assay: as above
T4 sequence: T1 sequence with A49E, R168A

[5] = molecular target: T5, GST-Mlph-ABD D447A (mouse) (UniProt Q91V27); assay: as above
T5 sequence: T1 sequence with D47A, A49E

[6] = molecular target: T6, GST-Mlph-ABD (the GST-tagged ABD of Mlph, residues 401–590) (mouse) (UniProt Q91V27); assay: as above
T6 sequence: T1 sequence with A49E

[7] = molecular target: T7, GST-Mlph-ABD E452A (mouse) (UniProt Q91V27); assay: as above
T7 sequence: T1 sequence with A49E, E52A

[8] = molecular target: T8, GST-Mlph-ΔRBD (residues 148–590) (mouse) (UniProt Q91V27); assay: pull-down; GST pulldown: 2 uM GST-Mlph-ΔRBD on GSH-Sepharose with 4 uM Myo5a-MTD variants; Pulldown Buffer-II (5 mM Tris-HCl pH 7.5, 100 mM NaCl, 1 mM DTT, 1 mM EGTA), 4 °C, 2 hr; Western blot with anti-Flag; both purified
T8 sequence: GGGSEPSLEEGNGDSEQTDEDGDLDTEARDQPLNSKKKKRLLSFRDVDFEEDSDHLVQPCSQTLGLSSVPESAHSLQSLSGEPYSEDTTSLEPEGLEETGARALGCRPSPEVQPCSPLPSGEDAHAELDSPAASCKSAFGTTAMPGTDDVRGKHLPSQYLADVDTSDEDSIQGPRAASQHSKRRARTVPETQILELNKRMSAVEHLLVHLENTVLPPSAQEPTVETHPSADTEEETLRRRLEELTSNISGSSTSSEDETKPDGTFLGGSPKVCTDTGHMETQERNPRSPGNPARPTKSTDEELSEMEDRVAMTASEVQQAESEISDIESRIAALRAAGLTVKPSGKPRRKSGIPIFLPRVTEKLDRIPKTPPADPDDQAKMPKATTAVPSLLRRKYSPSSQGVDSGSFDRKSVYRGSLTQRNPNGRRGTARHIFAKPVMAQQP

[9] = molecular target: T6, GST-Mlph-ABD (the GST-tagged ABD of Mlph, residues 401–590) (mouse); assay: pull-down; GST pulldown of GST-Mlph-ABD and Flag-Mlph-EFBD in the presence of Flag-Myo5a-MTD; Western blot with anti-Flag; both purified

For “Flag-Myo5a-MTD (residues 1106–1467), bacterial-expressed (domain or fragment)”, the binding [1] was “no binding”, the binding [2] was “binds” and the binding [3] was “binds”. For the same substance, the binding [4] was “binds”, the binding [5] was “binds” and the binding [6] was “binds”. For the same substance, the binding [7] was “no binding”, the binding [8] was “binds” and the binding [9] was “binds”.

With Flag-Myo5a-MTDΔF (domain or fragment) the binding [6] was “binds”.

With Flag-Myo5a-MTDΔG (domain or fragment) the binding [6] was “no binding”.

For “Flag-Trx-Myo5a (1411–1467) (domain or fragment)”, the binding [6] was “binds”.

“Flag-Trx-Myo5a (1436–1467) (domain or fragment)” was tested, and the binding [6] was “binds weakly”.

Where a chain is given by its changes, count along the chain named. These are yes or no findings as the source states them, for the method shown. For some of these results: Binding can be weak; no strength is given. Tags and fused reporters may be left off the sequences shown.
